Results of single-concentration screens

Data taken from ChEMBL document CHEMBL3988442, “University of Dundee, Small-Polar-MMV Screening Library” (2021).

Results are given as percent effect. How 0% and 100% were set is not recorded. Most values in the screen are low, and negative values occur. The compounds are a random part of those screened.

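Assay of Toxoplasma gondii numbers, read through their beta-galactosidase reporter with a colour substrate. Compounds at 50 µM. Higher reads as fewer parasites (inferred from which compounds were picked for retests). About 18,000 compounds were tested under these conditions; 0.94% (about 170) showed 50% or more at least once.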

| compound | effect |
|---|---|
| `CSCc1cccc(C(=O)NC2CCCCNC2=O)c1` (centres unmarked) | -5.466% |
| `O=C(NCC1CCCO1)c1cc(-c2cccs2)on1` (centres unmarked) | -6.895% |
| `CN1CCc2ccc(NC(=O)N3CCCC3)cc2C1=O` | 3.01% |
| `O=C(CSCCCN1CCOCC1)Nc1ccccc1` | -11.25% |
| `CCN1CCC(N2CCCNCC2)CC1` | -3.236% |
| `Cc1cc(NC(=O)NCCCN2CCCC2=O)ccn1` | -3.307% |
| `COCC(C)CNc1cccc(S(=O)(=O)N(C)C)c1` (centres unmarked) | -10.99% |
| `CO[C@H]1CN(Cc2nccn2C(C)C)CC[C@H]1N` | -9.984% |
| `O=C(c1cnsn1)N1CCN(C2CC2)C(=O)C1` | 91.53% |
| `CCn1ncnc1C(C)NC(=O)Cc1ccncc1` (centres unmarked) | 15.78% |
| `O=C(Cn1c(=O)[nH]c(=O)c2ccccc21)NC1CC1` | 33.51% |
| `CNC(=O)c1nc(C(=O)NCc2ccc(C)o2)cs1` | -21.23% |
| `Nc1ccc(CNc2nc(C3CC3)ns2)cn1` | -18.88% |
| `CN(C)c1ncc2c(n1)CCCC2N` (centres unmarked) | -6.039% |
| `CCC1(O)CCC12CCN(C(=O)c1cccnc1)CC2` (centres unmarked) | 7.249% |
| `NCCNS(=O)(=O)CCc1ccccc1` | -13.55% |
| `Nc1ccc(N2CCC(CO)CC2)cn1` | 3.688% |
| `Cc1ccc2ncc(CCN)cc2c1` | -18.06% |
| `N#Cc1cc(F)c(S(=O)(=O)NCCN)c(F)c1` | -7.913% |
| `CC(C)(C)C(=O)N1CCN(C(=O)[C@@H](N)C(C)(C)C)CC1` | -3.555% |
| `Cn1ccnc1C1CCNC1` (centres unmarked) | -4.308% |
| `CCN(CC)CCSC1CCCCNC1=O` (centres unmarked) | 2.19% |
| `COCC(C)N(C)C(=O)c1cc(-c2ccc(C)s2)[nH]n1` (centres unmarked) | -11.11% |
| `Cc1nn(CCCN)c(C)c1Br` | 21.15% |
| `Cc1ccc(C2CCCN2S(=O)(=O)N2CCOCC2)o1` (centres unmarked) | -0.8767% |
| `CCC(C)NCCOC` (centres unmarked) | -11.32% |
| `OCCOc1ccc(CN2CCCCCC2CO)cc1` (centres unmarked) | 0.7856% |
| `[H][C@]12CCC[C@@]([H])(CN(CCC(=O)Nc3cccnc3)C1)C2` | 0.8246% |
| `N#Cc1ccccc1C(=O)N1CCOC2(CCCC2)C1` | 23.73% |
| `N#Cc1c(F)cccc1NC1CCC2(CC1)OCCO2` | -12.96% |
| `COC(=O)c1ccc(OC)c(S(=O)(=O)NC2CC2)c1` | 0.92% |
| `CNC(=O)c1cc(S(=O)(=O)Nc2ccccn2)cs1` | -7.762% |
| `Cc1cccc(C)c1NC(=O)NCC1(O)CCNC1` (centres unmarked) | -9.612% |
| `O=C(CN1CCN(C(=O)c2ccco2)CC1)NC1CC1` | 54.85% |
| `COCc1ccc(C(=O)N2CCOCC(O)C2)o1` (centres unmarked) | -9.241% |
| `NC(=O)c1c[nH]cn1` | 2.815% |
| `COCCn1cnnc1CN(C)Cc1ccc(Cl)o1` | -13.44% |
| `CC(O)C(=O)N(C)c1ccccc1` (centres unmarked) | -13.58% |
| `CCc1cc(CNC(=O)c2ccc(F)c(F)c2)[nH]n1` | -11.52% |
| `O=C(CC1COCCN1Cc1ccon1)c1cccs1` (centres unmarked) | 5.853% |
| `O=C(NC[C@@H]1C[C@H](F)CN1)c1ccc2ccccc2n1` | 1.193% |
| `Cc1n[nH]c(CN2CCC[C@H]2c2nc(C(C)C)no2)n1` | 8.145% |
| `COCCN1CCN(CCc2ccncc2)CC1` | -15.5% |
| `OCCNC1CCCSC1` (centres unmarked) | -10.5% |
| `CNC(=O)NCCNc1ccccc1` | 0.05488% |
| `CNc1cc(-c2cccc(OC)c2)[nH]n1` | 98.42% |
| `CC(Cc1cnccn1)N(C)CCCS(=O)(=O)N(C)C` (centres unmarked) | -3.87% |
| `OCC1CCC2(CCCC2)CN1` (centres unmarked) | 23.34% |
| `OC1CCCN(CCOc2ccccc2)C1` (centres unmarked) | 1.087% |
| `COCCN1C(=O)C[C@H](CN)[C@H]1c1cnn(C)c1` | -67.76% |
| `Cc1c(Cl)cccc1C(=O)NC(C)c1nnnn1C` (centres unmarked) | -0.2013% |
| `Cc1ccc(CS(=O)(=O)c2ncnn2C)cc1` | 10.82% |
| `CSc1nnc(CN)n1C` | -0.3246% |
| `CC(C)[C@H](N)C(=O)N1Cc2ccccc2C1` | 0.7729% |
| `CO[C@@H]1CN[C@@H](c2nc(C)no2)C1` | -5.492% |
| `CCC(O)CN1CCCN(C2CCOCC2)CC1` (centres unmarked) | 2.091% |
| `CCN1CCN(CC(=O)Nc2ccccc2)CC1` | -1.254% |
| `O=S(=O)(NC1CCCC1)C1CN(Cc2ccno2)C1` | 5.126% |
| `CC(C)(N)CN1CCCC1` | -4.981% |
| `NCc1ccc2c(c1)CNC2` | 4.78% |
| `CCNC(=O)c1cc(N2CCCC(C)CC2)ccn1` (centres unmarked) | 2.669% |

The last 6 entries again:

compound	effect
CCC(O)CN1CCCN(C2CCOCC2)CC1 (centres unmarked)	2.091%
CCN1CCN(CC(=O)Nc2ccccc2)CC1	-1.254%
O=S(=O)(NC1CCCC1)C1CN(Cc2ccno2)C1	5.126%
CC(C)(N)CN1CCCC1	-4.981%
NCc1ccc2c(c1)CNC2	4.78%
CCNC(=O)c1cc(N2CCCC(C)CC2)ccn1 (centres unmarked)	2.669%